Assay results as given in patent publication US9527830B2 (Merck Sharp & Dohme Corp., priority 2011, dated 2016).
Some entries share one result that the patent states for a list of compounds.

biological target: T1, hROMK1 (Kir1.1) (Homo sapiens, UniProt P48048); assay: ^86Rb^+ Efflux Assay; format: cell-based; conditions: CHO-DHFR- cells stably expressing hROMK1; potency ranges
T1 construct: expressed in transfected cells
T1 sequence (P48048 1-391): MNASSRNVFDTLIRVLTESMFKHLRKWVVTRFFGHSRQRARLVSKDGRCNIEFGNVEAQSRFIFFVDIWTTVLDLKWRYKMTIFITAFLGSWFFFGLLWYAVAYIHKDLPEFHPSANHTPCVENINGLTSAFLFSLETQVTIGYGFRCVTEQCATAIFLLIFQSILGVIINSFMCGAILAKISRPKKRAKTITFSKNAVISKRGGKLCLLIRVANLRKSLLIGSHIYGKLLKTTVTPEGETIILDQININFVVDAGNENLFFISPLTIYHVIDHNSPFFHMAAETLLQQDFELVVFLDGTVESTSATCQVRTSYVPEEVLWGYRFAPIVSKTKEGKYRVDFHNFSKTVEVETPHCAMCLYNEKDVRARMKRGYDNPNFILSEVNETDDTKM
Procedure: Several assays may be used to measure functional inhibition of the ROMK channel by compounds of the instant invention. One primary assay that can be used is a functional ^86Rb^+ efflux assay that measures the ability of ROMK to permeate ^86Rb^+, in the absence or presence of test compound. Under control conditions, cells loaded with ^86Rb^+ and incubated in Rb^+-free medium display a time-dependent efflux of the isotope, the rate of which depends on number of functional channels. When cells are incubated in the presence of a channel inhibitor, efflux of ^86Rb^+ is prevented in a concentration-dependent manner, and IC50 values of inhibition by compounds can be accurately determined. This assay has been established with cell lines expressing either human, rat or dog ROMK channels, and can operate in 96- or 384-well format. Importantly, the human, rat, and dog ^86Rb^+ efflux assays can be carried out in the presence of up to 100% serum allowing, therefore, an accurate estimation of the effect of protein binding on the inhibitory activity of compounds of interest. Another ROMK functional assay makes use of the ability of thallium to permeate through open ROMK channels and increase the fluorescence of a dye previously loaded into the cells. Under control conditions, cells loaded with dye and exposed to thallium-containing medium display a time-dependent increase in fluorescence, the rate of which depends on number of functional channels. When cells are incubated in the presence of a channel inhibitor, the increase in fluorescence is attenuated in a concentration-dependent manner, and IC50 values of inhibition by compounds can be accurately determined. […]
CHO-DHFR-cells stably expressing hROMK1 (Kir1.1) were grown at 37° C. in a 10% CO2 humidified incubator in Iscove's Modified Dulbecco's Medium (Gibco 12440) supplemented with HT Supplement, Penicillin/Streptomycin/Glutamine, G418 (500 μg/ml) and 10% FBS. […] Radioactivity associated with assay and cell plate was determined. […]

| Structure (SMILES) | IC50 [µM] |
| --- | --- |
| COC(=O)C1(CCc2ccc([N+](=O)[O-])cc2)CCN(CCc2ccc([N+](=O)[O-])cc2)CC1 [Example 1, Methyl 1,4-bis[2-(4-nitrophenyl)ethyl]piperidine-4-carboxylate] | ≤ 1.1 |
| O=[N+]([O-])c1ccc(/C=C/C2CCN(CCc3ccc([N+](=O)[O-])cc3)CC2)cc1 [Example 2, 4-[(E)-2-(4-Nitrophenyl)ethenyl]-1-[2-(4-nitrophenyl)ethyl]piperidine] | ≤ 1.1 |
| O=[N+]([O-])c1ccc(CCC2CCN(CCc3ccc([N+](=O)[O-])cc3)CC2)cc1 [Example 3, 1,4-bis[2-(4-Nitrophenyl)ethyl]piperidine] | ≤ 1.1 |
